The source of these data is patent US5855916A, “Highly soluble multicomponent inclusion complexes containing a base type drug, an acid and a cyclodextrin” (priority 1993, dated 1999).

For data set [1] the following is noted: Table 1.
Data set [2] can be described thus: physchem. The note with it: water, room temperature.

SMILES strings stand for the structures. In brackets after ≈: the same amount, converted by molar mass.

`C(=C\c1ccccc1)/CN1CCN(C(c2ccccc2)c2ccccc2)CC1` [Cinnarizine]: the “Solubility ratio to FB: FB” value in data set [1] (drug alone) is 1 x. Also, the “Solubility ratio to FB: FB/AT” value in data set [1] (drug with tartaric acid) is 90 x. Moreover, the “Solubility ratio to FB: FB/AT/βCD” value in data set [1] (drug/tartaric acid/β-CD multicomponent complex) turned out to be 2000 x. For the same compound, the “Water solubility, drug concentration F: FB/AT/βCD” value in data set [1] (drug/tartaric acid/β-CD multicomponent complex, room temperature) stood at 20000 µg/mL. Moreover, the “Solubility ratio to FB: FB/βCD” value in data set [1] (drug/β-CD complex) is 5 x. The “Water solubility, drug concentration F: FB/βCD” value in data set [1] (drug/β-cyclodextrin complex, room temperature) was 500 µg/mL. Besides, the solubility – broadly, how much of the substance goes into solution per volume – in data set [2] (drug concentration F: FB, Table 1, basic-type drug alone) is 100 µg/mL (≈ 0.271 mM); in data set [2] (drug concentration F: FB/AT, Table 1, drug with tartaric acid) it was 9000 µg/mL (≈ 24.4 mM).
